{"source": "patent US7368430B2", "about": "“Selective inhibitors of nuclear factor-κB activation and uses thereof” (Research Development Foundation, priority 2003, dated 2008)", "tested_on": "NF-κB", "assay": "EMSA of NF-κB activation in KBM-5 cells preincubated with peptides", "format": "cell-based", "settings": "150 μM peptide 1 h; 0.1 nM TNF, 1 μg/ml LPS, 100 ng/ml IL-1, 500 nM okadaic acid, 10 ng/ml PMA, 500 μM H2O2 or 1 μg/ml cigarette smoke condensate (FIG. 4B)", "experimental": "NF-κB activation was examined by electrophoretic mobility shift assays as described (Chaturvedi et al., 1994; Takada and Aggarwal). Briefly, nuclear extracts prepared from TNF-treated cells (1×10^6/ml) were incubated with ^32P-end-labeled 45-mer double-stranded NF-κB oligonucleotide (10 ug of protein with 16 fmol of DNA) from the human immunodeficiency virus long terminal repeat, 5′-[…] CAGGGAGGCGTGG-3′ (SEQ ID NO. 1, boldface indicates NF-κB binding sites) for 30 min at 37° C., and the DNA-protein complex formed was separated from free oligonucleotide on 6.6% native polyacrylamide gels. […]\nTo determine the effects of peptide containing Ser 276 (PTD-p65-P1), KBM-5 cells was preincubated with the peptides for 1 h, and then treated with 0.1 nM TNF for the indicated times. Nuclear extracts were prepared, and NF-κB activation was analyzed by electrophoretic mobility shift assays (EMSA). […]\nLipopolysaccharide, IL-1, okadaic acid, PMA, H2O2, and cigarette smoke condensate are potent activators of NF-κB, but the mechanisms differ. […] Cells were preincubated with 150 μM protein transduction domain-p65-P1 for 1 h, treated with 0.1 nM TNF, 1 μg/ml LPS, 100 ng/ml IL-1, 500 nM okadaic acid, 10 ng/ml PMA, 500 μM H2O2, or 1 μg/ml cigarette smoke condensate and then analyzed for NF-κB activation by EMSA.", "note": "Part of at least one peptide drawing is inferred or uncertain, most often the ends. Where a SMILES comes first, the peptide text is derived from it."}
{"smiles": "CC[C@H](C)[C@H](NC(=O)[C@H](CCCCN)NC(=O)[C@@H](NC(=O)[C@H](CCC(N)=O)NC(=O)[C@H](CCCNC(=N)N)NC(=O)[C@@H](N)CC(=O)O)[C@@H](C)CC)C(=O)N[C@@H](Cc1c[nH]c2ccccc12)C(=O)N[C@@H](Cc1ccccc1)C(=O)N[C@@H](CCC(N)=O)C(=O)N[C@@H](CC(N)=O)C(=O)N[C@@H](CC(N)=O)C(=O)N[C@@H](CCCNC(=N)N)C(=O)N[C@@H](CCCNC(=N)N)C(=O)N[C@@H](CCSC)C(=O)N[C@@H](CCCCN)C(=O)N[C@@H](Cc1c[nH]c2ccccc12)C(=O)N[C@@H](CCCCN)C(=O)N[C@@H](CCCCN)C(=O)N[C@@H](CCC(N)=O)C(=O)N[C@@H](CC(C)C)C(=O)N[C@@H](CCCNC(=N)N)C(=O)N[C@@H](CCCNC(=N)N)C(=O)N1CCC[C@H]1C(=O)N[C@@H](CO)C(=O)N[C@@H](CC(=O)O)C(=O)N[C@@H](CCCNC(=N)N)C(=O)N[C@@H](CCC(=O)O)C(=O)N[C@@H](CC(C)C)C(=O)N[C@@H](CO)C(=O)N[C@@H](CCC(=O)O)C(=O)O", "note": "[PTD-p65-P1] (H-DRQIKIWFQNNRRMKWKKQLRRPSDRELSE-OH)", "values": [{"measurement": "effect on NF-κB activation induced by different activators", "value": "suppressed the activation of NF-κB induced by all these agents"}]}
